# Data: PubChem BioAssay (Tox21)
# The chains behind the UniProt entries cited, without tags or fusion partners. Where a name states a change or a piece, a line headed by the entry shows the natural chain unless it says otherwise.
# UniProt P14416, whole entry, looked up: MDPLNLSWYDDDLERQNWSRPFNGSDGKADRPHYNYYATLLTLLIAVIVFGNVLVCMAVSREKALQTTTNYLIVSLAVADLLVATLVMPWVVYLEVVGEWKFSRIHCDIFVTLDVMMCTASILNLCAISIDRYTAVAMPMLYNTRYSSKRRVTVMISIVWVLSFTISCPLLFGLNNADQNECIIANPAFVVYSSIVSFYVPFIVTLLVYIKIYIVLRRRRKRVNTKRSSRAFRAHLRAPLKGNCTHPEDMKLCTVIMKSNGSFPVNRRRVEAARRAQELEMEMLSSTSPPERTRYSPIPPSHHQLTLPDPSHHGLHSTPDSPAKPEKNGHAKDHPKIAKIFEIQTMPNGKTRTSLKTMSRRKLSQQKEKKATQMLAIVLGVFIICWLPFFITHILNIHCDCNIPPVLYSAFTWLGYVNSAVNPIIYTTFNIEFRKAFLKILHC
# UniProt P28223, whole entry, looked up: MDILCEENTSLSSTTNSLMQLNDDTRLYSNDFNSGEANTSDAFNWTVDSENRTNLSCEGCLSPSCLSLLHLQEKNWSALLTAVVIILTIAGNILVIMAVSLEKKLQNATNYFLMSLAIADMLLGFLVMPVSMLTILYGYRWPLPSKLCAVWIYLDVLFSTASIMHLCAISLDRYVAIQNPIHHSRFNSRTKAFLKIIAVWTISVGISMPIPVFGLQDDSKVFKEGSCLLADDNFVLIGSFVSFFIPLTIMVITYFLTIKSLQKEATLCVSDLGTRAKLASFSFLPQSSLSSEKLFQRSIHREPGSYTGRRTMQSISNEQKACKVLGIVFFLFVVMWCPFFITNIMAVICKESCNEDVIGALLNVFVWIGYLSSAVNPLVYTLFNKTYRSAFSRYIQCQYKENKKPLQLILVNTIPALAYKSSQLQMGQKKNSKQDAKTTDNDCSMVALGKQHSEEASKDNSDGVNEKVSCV
# UniProt P11229: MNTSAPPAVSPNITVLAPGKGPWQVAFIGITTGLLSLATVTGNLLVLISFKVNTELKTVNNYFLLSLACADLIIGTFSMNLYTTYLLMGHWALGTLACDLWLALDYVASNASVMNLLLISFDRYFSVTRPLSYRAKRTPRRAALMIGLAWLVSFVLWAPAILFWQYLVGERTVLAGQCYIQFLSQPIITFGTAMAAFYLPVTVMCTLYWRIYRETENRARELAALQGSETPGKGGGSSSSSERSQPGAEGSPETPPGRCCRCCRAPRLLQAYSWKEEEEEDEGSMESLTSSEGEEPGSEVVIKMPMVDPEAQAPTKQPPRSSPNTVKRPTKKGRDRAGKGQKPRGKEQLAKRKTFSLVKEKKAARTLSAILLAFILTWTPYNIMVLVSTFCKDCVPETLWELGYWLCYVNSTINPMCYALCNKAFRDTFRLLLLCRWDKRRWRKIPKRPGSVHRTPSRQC
# “And” between values parts separate entries of the source, which are not always exact repeats. Identical values can stand only once. Inconclusive means that the source gave no clear call. Such entries were picked first, then a sample of the others. For some of these results: Potencies beside an inconclusive call are fits to weak or partial responses and may not hold up. The source made the active and inactive calls. Unless noted, calls follow the shape of the full dose curve.
# How the values were obtained:
# [1] = Nuclear factor erythroid 2-related factor 2/antioxidant responsive element (Nrf2/ARE) small molecule agonists: luciferase reporter gene qHTS assay in human keratinocytes (AID 1919969); details: KeratinoSens HaCaT ARE-luciferase, luminescence, 24 h; activity, positive = activation: at 92.4 µM (top of the series); also: nearly all actives have a fitted effect of over 35% in size; also: potency is read from the fitted curve at half-maximal effect; as to activity, positive = activation: % is scaled to controls: 0 for no effect and ±100 for the full control effect
# [2] = p53 small molecule agonists, cell-based qHTS assay with human liver microsomes (AID 1963577); details: HCT-116 p53RE-bla with human liver microsomes, ratio, 16 h; activation: at 66 µM (top of the series) unless noted; also: potency is read from the fitted curve at half-maximal effect;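 as to activation: p53 response element beta-lactamase reporter cells with liver microsomes plus NADPH; % is scaled to controls: 0 for no effect and ±100 for the full control effect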
# Procedure, shortened: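 Steps: plate p53RE-bla cells, incubate 5 h at 37 C; add compound in DMSO; add microsomes (0.5 mg/mL final) and NADPH (0.5 mg/mL final); incubate 16 h at 37 C; add LiveBLAzer, 2 h RT; read fluorescence.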
# [3] = target: D(2) dopamine receptor (Homo sapiens) (UniProt P14416); assay: Dopamine D2 receptor (DRD2) small molecule antagonists, cell-based qHTS assay (AID 1963595; active = well fitted inhibition curve with a large enough effect in the signal ratio in the repeat runs, with a control signal flat; inconclusive = weak or mixed curves, or effect the other way; the % refers to the signal ratio; also: potency is read from the fitted curve at half-maximal effect; as to activity change, negative = inhibition: % is scaled to controls: 0 for no effect and ±100 for the full control effect); details: HEK293-DRD2 cAMP HTRF antagonist mode; activity change, negative = inhibition: at 92.4 µM (top of the series) unless noted
# Procedure, shortened: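 HEK293 cells stably expressing DRD2 were preincubated with 0.1 mM Ro20-1724, then with compound for 10 min at room temperature. Cells were stimulated with 200 nM NKH477 plus 12 nM quinpirole for 30 min, and cAMP was read by HTRF.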
# [4] = p53 small molecule agonists, cell-based qHTS assay with rat liver microsomes (AID 1963578); details: HCT-116 p53RE-bla, beta-lactamase ratio, 16 h; activation: at 66 µM (top of the series) unless noted; also: potency is read from the fitted curve at half-maximal effect
# Procedure, shortened: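 Metabolic activation is supplied by rat liver microsomes with NADPH (each 0.5 mg/mL final). p53RE-bla cells incubate with compound 16 h at 37 C; reporter activity is measured by LiveBLAzer fluorescence.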
# [5] = p53 small molecule agonists, cell-based qHTS assay: qHTS cell viability counter screen (AID 1963581); also: potency is read from the fitted curve at half-maximal effect; nearly all actives have a fitted effect of over 45% in size
# Procedure, shortened: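 HCT-116 p53RE-bla cells, 4,000/well, plated 5 h before compound pin transfer; 16 h at 37 C; bla substrate 2 h RT; then CellTiter-Glo, 30 min RT, luminescence.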
# [6] = cAMP Responsive Elements (CRE) small molecule antagonists, cell-based qHTS assay (AID 1963591; active = well fitted inhibition curve with a large enough effect in the signal ratio in the repeat runs, not every such curve was filed as active; inconclusive = weak or mixed curves, or effect the other way; the % refers to the signal ratio; also: potency is read from the fitted curve at half-maximal effect); details: CRE-bla HEK293T, beta-lactamase FRET ratio; activity change, negative = inhibition: at 92.4 µM (top of the series) unless noted
# Procedure, shortened: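 Beta-lactamase reporter read by FRET substrate (LiveBLAzer B/G) after 2 h at room temperature. CRE-bla HEK293T cells had received compound plus 0.25 uM (final) NKH477 for 3 h at 37 °C.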
# [7] = target: Beta-2 adrenergic receptor (Homo sapiens) (UniProt P07550); assay: Adrenergic beta2 receptor (ADRB2) small molecule agonists, cell-based qHTS assay (AID 1963593); details: CHO-ADRB2 cells, cAMP HTRF, 30 min; also: potency is read from the fitted curve at half-maximal effect;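 as to activation: CHO cells stably overexpressing human ADRB2; % is scaled to controls: 0 for no effect and ±100 for the full control effect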
# Procedure, shortened: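 CHO cells stably over-expressing ADRB2 were plated overnight at 37C, then dosed with compounds plus a stimulation mix containing 100uM IBMX and 25uM Ro-20-1724 for 0.5hr at room temperature. cAMP was measured by HTRF competition, 1hr.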
# [8] = p53 small molecule agonists, cell-based qHTS assay with rat liver microsomes: qHTS cell viability counter screen (AID 1963580); also: nearly all actives have a fitted effect of over 45% in size; also: potency is read from the fitted curve at half-maximal effect
# Procedure, shortened: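 In HCT-116 cells carrying a p53 response element-bla reporter, compounds were metabolically activated in situ by rat liver microsomes with NADPH over 16 h. Cell ATP content then served as the cytotoxicity measure.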
# [9] = p53 small molecule agonists, cell-based qHTS assay (AID 1963582; active = well fitted activation curve with a large enough effect in the signal ratio in the repeat runs, not every such curve was filed as active; inconclusive = weak or mixed curves; the % refers to the signal ratio; also: potency is read from the fitted curve at half-maximal effect); details: HCT-116 p53RE-bla reporter, beta-lactamase FRET ratio, 16 h; activation: at 66 µM (top of the series) unless noted
# Procedure, shortened: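 Reporter line: p53RE-bla. Pre-incubation 5 h, 37 C, 5% CO2; compound (DMSO, pin tool) 16 h, 37 C; B/G FRET substrate 2 h RT; fluorescence intensity read.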
# [10] = cAMP Responsive Elements (CRE) small molecule agonists, cell-based qHTS assay (AID 1963590); details: CRE-bla HEK293T, beta-lactamase FRET ratio, 3 h; activation: at 92.4 µM (top of the series) unless noted; also: potency is read from the fitted curve at half-maximal effect
# Procedure, shortened: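 HEK 293T CRE-bla, 2,000 cells/well, 18 h preincubation 37 C/5% CO2; cpds (DMSO) pinned, 3 h; LiveBLAzer B/G FRET substrate, 2 h RT.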
# [11] = target: 5-hydroxytryptamine receptor 2A (Homo sapiens) (UniProt P28223); assay: 5-hydroxytryptamine receptor 2A (HTR2A) small molecule antagonists, cell-based qHTS assay (AID 1963586); also: nearly all actives have a fitted effect of over 45% in size; also: potency is read from the fitted curve at half-maximal effect
# Procedure, shortened: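 Antagonist-mode intracellular calcium assay: DOI (4 nM) added after 5 min compound pre-incubation at room temperature to dye-loaded HTR2A-CHO cells. Fluorescence followed for 3 min, sampled every second.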
# [12] = target: Muscarinic acetylcholine receptor M1 (Homo sapiens) (UniProt P11229); assay: Cholinergic receptor muscarinic 1 (CHRM1) small molecule antagonists, cell-based qHTS assay (AID 1963588); also: potency is read from the fitted curve at half-maximal effect; nearly all actives have a fitted effect of over 40% in size
# Procedure, shortened: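 CHRM1-CHO calcium-flux assay, antagonist mode. Cells were seeded 18 h, dye-loaded 1 h at 37 C and given compound for 5 min at RT, then acetylcholine was added at 50nM. FDSS fluorescence was read 3 min; 15 concentrations, three runs.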
# [13] = target: Beta-2 adrenergic receptor (Homo sapiens) (UniProt P07550); assay: Adrenergic beta2 receptor (ADRB2) small molecule antagonists, cell-based qHTS assay (AID 1963592); details: CHO-ADRB2 cells, isoproterenol-stimulated cAMP HTRF ratio, 0.5 h; activity change, negative = inhibition: at 92.4 µM (top of the series) unless noted; also: nearly all actives have a fitted effect of over 50% in size; also: potency is read from the fitted curve at half-maximal effect
# Procedure, shortened: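 Cells (CHO, stable ADRB2 overexpression) incubated 18-20hr at 37C; compounds added from DMSO; agonist mix (1nM isoproterenol, 100uM IBMX, 25uM Ro-20-1724) added; 0.5hr RT; d2-cAMP and anti-cAMP-cryptate added; 1hr RT; 665/615 nm read.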
# [14] = target: D(2) dopamine receptor (Homo sapiens) (UniProt P14416); assay: Dopamine D2 receptor (DRD2) small molecule agonists, cell-based qHTS assay (AID 1963594); details: HEK293-DRD2 cAMP HTRF, agonist mode, 30 min; activation: at 92.4 µM (top of the series) unless noted; also: % is scaled to controls: 0 for no effect and ±100 for the full control effect; nearly all actives have a fitted effect of over 35% in size
# Procedure, shortened: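 HEK293 cells stably expressing DRD2 were cultured 24 h at 37 C, then given Ro20-1724 (0.1 mM final) and compounds for 10 min at room temperature. NKH477 (200nM) was then added for 30 min. cAMP was read by HTRF.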
# [15] = p53 small molecule agonists, cell-based qHTS assay with human liver microsomes: qHTS cell viability counter screen (AID 1963579); also: % is scaled to controls: 0 for no effect and ±100 for the full control effect; nearly all actives have a fitted effect of over 45% in size
# Procedure, shortened: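 After the 460/530 nm beta-lactamase read, CellTiter-Glo was added to the same wells and luminescence measured after 30 min at room temperature, giving viability of p53RE-bla cells treated 16 h with compounds plus microsomes and NADPH.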
# [16] = activation: at 92.4 µM (top of the series) unless noted
smiles,measurement,setting,value
CCCCCCCCCCCC(=O)OCC,Potency,[1],inactive
same,activation,[2],inconclusive: 6.93%
same,Potency,[3],inactive
O=[N+]([O-])c1ccc2c(c1)Cc1ccccc1-2,Potency,[1],inconclusive: 61.1 µM [activator]
same,Potency,[4],"inconclusive: 45.8 µM [rising, single point]"
same,Potency,[5],"inconclusive: 45.8 µM [rising, partial curve, poor fit]"
same,Potency,[6],"inconclusive: 35.9 µM [inhibitor, single point]"
same,activation,[7]; [16],inconclusive: 13.9%
same,activation,[7]; at 92.4 µM (top of the series),inactive: 16.8%
c1cnc2c(c1)ccc1cccnc12,Potency,[1],"inconclusive: 2.46 µM [activator, single point] and inconclusive: 6.11 µM [activator, single point]"
same,Potency,[4],"inconclusive: 18.2 µM [fluorescent, single point]"
same,Potency,[8],"inconclusive: 29.1 µM [cytotoxic, partial curve] and inconclusive: 51.3 µM [cytotoxic, single point] and inconclusive: 20.4 µM [cytotoxic, single point]"
same,Potency,[9],"inconclusive: 32.4 µM [activator, partial curve]"
same,activation,[9],inconclusive: 23.8% and inconclusive: 22.5%
same,Potency,[10],inactive
same,Potency,[6],"inconclusive: 8.71 µM [inhibitor, partial curve] and inconclusive: 9.69 µM [inhibitor, full curve, poor fit] and inconclusive: 7.17 µM [inhibitor, partial curve, poor fit]"
same,Potency,[7]; [16],inactive
CN1C(=O)c2ccccc2C1=O,Potency,[1],"inconclusive: 68.6 µM [activator, single point]"
same,activation,[4],inconclusive: -3.69%
same,Potency,[8],"inconclusive: 182 nM [rising, partial curve, poor fit]"
same,Potency,[11],inactive
same,Potency,[12],"inconclusive: 2.7 nM [inhibitor, full curve, poor fit]"
same,Potency,[13],active: 54.5 µM
same,activation,[7]; [16],inconclusive: 31.4%
same,activation,[14],inconclusive: 2.7%
CCN(CC)CC,Potency,[1],"inconclusive: 2.56 µM [activator, single point]"
same,Potency,[4],inactive
same,Potency,[9],"inconclusive: 54.1 µM [activator, partial curve, poor fit]"
same,Potency,[11],"inconclusive: 14 nM [inhibitor, full curve, poor fit]"
same,activation,[7]; [16],inconclusive: 2.74%
COC(=O)N[C@H](C(=O)N[C@@H](Cc1ccccc1)[C@@H](O)CN(Cc1ccc(-c2ccccn2)cc1)NC(=O)[C@@H](NC(=O)OC)C(C)(C)C)C(C)(C)C,Potency,[1],inactive
same,Potency,[2],inactive
same,Potency,[7]; [16],inactive
COCCCOc1ccnc(CS(=O)c2nc3ccccc3[nH]2)c1C (stereo not drawn),Potency,[1],inconclusive: 23.7 µM [activator]
same,Potency,[2],inactive
same,Potency,[10],"inconclusive: 60.9 µM [rising, single point]"
same,Potency,[6],"inconclusive: 54.3 µM [activator, partial curve]"
same,activation,[7]; [16],inconclusive: 13% [at 42.5 µM]
same,activation,[7]; at 92.4 µM (top of the series),inactive: -47.1%
same,"activity change, negative = inhibition",[3],inconclusive: -26.3% [at 42.5 µM]
C[C@@H]1C[C@H]2[C@@H]3CCC4=CC(=O)C=C[C@]4(C)[C@@]3(F)[C@@H](O)C[C@]2(C)[C@@]1(O)C(=O)COC(=O)c1ccncc1,Potency,[1],inactive
same,Potency,[2],"inconclusive: 15.8 µM [fluorescent, partial curve]"
same,Potency,[11],"inconclusive: 259 nM [inhibitor, partial curve, poor fit]"
same,activation,[7]; [16],inconclusive: 8.99% [at 42.5 µM]
O=C(c1ccc(O)cc1O)c1ccc(O)cc1O,Potency,[1],"inconclusive: 54.5 µM [activator, partial curve]"
same,Potency,[4],inconclusive: 51.3 µM [activator]
same,Potency,[9],"inconclusive: 8.15 µM [fluorescent, full curve] and inconclusive: 45.8 µM [fluorescent]"
same,Potency,[11],"inconclusive: 47200 nM [inhibitor, partial curve, poor fit]"
same,Potency,[6],inconclusive: 42.7 µM [activator]
same,Potency,[13],inconclusive: 61.2 µM
same,"activity change, negative = inhibition",[13],inconclusive: -40.8%
same,Potency,[7]; [16],"inconclusive: 77 µM [cytotoxic, partial curve, poor fit] and inconclusive: 77 µM [inhibitor, single point]"
same,Potency,[3],"inconclusive: 38.6 µM [cytotoxic, partial curve, poor fit]"
CCN(CCC#N)c1ccc(N=Nc2c(Cl)cc([N+](=O)[O-])cc2Cl)cc1,Potency,[1],"inconclusive: 68.6 µM [activator, single point]"
same,Potency,[4],"inconclusive: 10.2 µM [activator, single point]"
same,Potency,[8],inactive
same,Potency,[10],inactive
same,Potency,[7]; [16],"inconclusive: 545 nM [inhibitor, full curve, poor fit]"
Cc1cc(=O)[nH]c(=O)[nH]1,Potency,[1],inactive
same,Potency,[2],inactive
same,Potency,[13],"inconclusive: 1.72 µM [activator, partial curve, poor fit]"
same,activation,[7]; [16],inconclusive: -6.04%
same,Potency,[14],inactive
same,"activity change, negative = inhibition",[3],inconclusive: -14.8%
O=C(OCCc1ccccc1)c1ccccc1,Potency,[1],active: 27.3 µM
same,Potency,[4],"inconclusive: 18.2 µM [activator, single point]"
same,Potency,[15],inactive
same,Potency,[8],"inconclusive: 18200 nM [cytotoxic, single point]"
same,Potency,[10],inconclusive: 68.6 µM
same,"activity change, negative = inhibition",[6],inconclusive: -33.9%
c1ccc2sc(SN3CCOCC3)nc2c1,Potency,[1],"inconclusive: 33.5 µM [activator, single point]"
same,Potency,[2],inactive
same,Potency,[7]; [16],inactive
